Primary screen of a compound library

Source: ChEMBL document CHEMBL3988442, “University of Dundee, Small-Polar-MMV Screening Library” (2021).

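Whole-cell assay for inhibitors of Mycobacterium tuberculosis growth, labelled Cornell in the record; the read-out is not stated. The concentration is filed as 10 mM, unlikely as a test dose, so the dose is not known. Higher means stronger inhibition (inferred from two other growth screens of the library). Size under these conditions: about 53,000 compounds, about 900 of them at 50% or above in at least one test.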

Results are given as percent effect.
The controls that fix the scale are not given in the record; negative values are as filed.
Compounds were drawn at random from those tested, without regard to their results.

{"structure": "CN(C)C(=O)COC1COC2(CCN(CC3CC3)CC2)C1.O=C(O)C(F)(F)F", "stereo": "stereo unspecified", "Percent Effect": -20.37}
{"structure": "O=C(NCc1cnn2cccnc12)C1CC(=O)N(Cc2cccnc2)C1", "stereo": "stereo unspecified", "Percent Effect": -23.55}
{"structure": "Cc1cn2nc(Sc3nnc(C(C)C)n3C)sc2n1", "Percent Effect": -48.6}
{"structure": "Cc1cc(C)n(CC(C)NC(=O)C(C)(C)c2ccccc2F)n1", "stereo": "stereo unspecified", "Percent Effect": -10.56}
{"structure": "COc1cc2c(cc1OC)S(=O)(=O)N(Cc1cc(C)on1)C2=O", "Percent Effect": -3.699}
{"structure": "CC(Oc1ccccc1C(F)(F)F)C(=O)NCCNC(=O)C1CC1", "stereo": "stereo unspecified", "Percent Effect": 6.751}
{"structure": "Cn1cc(-c2ccnc(NCC3CCN(Cc4ccccc4)C3)n2)cn1", "stereo": "stereo unspecified", "Percent Effect": 8.489}
{"structure": "CN(Cc1nccs1)C1CCN(c2ncccn2)CC1", "Percent Effect": 10.09}
{"structure": "O=C(Cn1ccc2ccccc21)Nc1cc(N2CCOCC2)ncn1", "Percent Effect": -15.71}
{"structure": "O=C(O)C(F)(F)F.[H][C@@]12CCN(Cc3ccccc3)C[C@]1(C(=O)N1CCCO1)CCO2", "Percent Effect": 27.05}
{"structure": "O=C(c1ccnn1COc1ccc(Cl)cc1)N1CCSCC1", "Percent Effect": 49.18}
{"structure": "O=C(O)C(F)(F)F.[H][C@]12CCN(c3ncccn3)[C@@]1([H])C[C@@H](C(=O)Nc1nc(C)cs1)O2", "Percent Effect": -32.63}
{"structure": "Cc1c(Br)cccc1S(=O)(=O)NCc1ccnn1C", "Percent Effect": 7.398}
{"structure": "COc1cc(C(C)=O)ccc1OCCNCc1ccco1.Cl", "Percent Effect": 32.65}
{"structure": "CCNC(=O)c1ccc2c(c1)nc1n2CCN(Cc2ccco2)C1", "Percent Effect": 10.08}
{"structure": "Cc1cc(CNC(=O)c2cccs2)ccc1S(C)(=O)=O", "Percent Effect": 2.767}
{"structure": "CN(C)c1cccc(CNCc2ccc(N3CCOCC3)cc2)c1", "Percent Effect": -13.02}
{"structure": "CCNC(=O)NC(=O)CNC1(c2noc(C)n2)CCCCC1", "Percent Effect": -14.89}
{"structure": "O=C(O)C(F)(F)F.O=C(O)C(F)(F)F.O=C(O)C(F)(F)F.c1cncc(C[C@H]2[C@H](N3CCOCC3)CCN2Cc2nccs2)c1", "Percent Effect": 4.323}
{"structure": "C[C@]1(O)CN(Cc2ncccc2F)CC[C@@H]1Oc1ccccc1", "Percent Effect": 5.751}
{"structure": "NC(=O)CCS(=O)(=O)Cc1ccc(OCC(F)(F)F)cc1", "Percent Effect": -1.207}
{"structure": "Cc1noc(C)c1C(=O)NCC1CCCCN1Cc1ccccc1", "stereo": "stereo unspecified", "Percent Effect": 14.48}
{"structure": "Cc1nnc(C(C)N2CCCN(Cc3ccc(F)cc3)CC2)o1", "stereo": "stereo unspecified", "Percent Effect": 8.155}
{"structure": "CCc1nc(C)c(C2CC(=O)Nc3c2c(-c2cccnc2)nn3C)[nH]1", "stereo": "stereo unspecified", "Percent Effect": -4.445}
{"structure": "COCCCNC(=O)c1cn(C(C)C)cc2c(=O)[nH]nc1-2", "Percent Effect": -57.16}
{"structure": "O=C(NCC1OCCc2cn(CC3CC3)nc21)c1ccsc1", "stereo": "stereo unspecified", "Percent Effect": 22.09}
{"structure": "CN(C)C(=O)N1CC2(CCN(S(C)(=O)=O)CC2)c2ccccc21", "Percent Effect": -3.93}
{"structure": "O=C(O)C(F)(F)F.[H][C@@]12C[C@H](C(=O)NCCN(C)C)[C@@]([H])(CN(C(=O)NCc3ccccc3)C1)O2", "Percent Effect": 6.705}
{"structure": "COCCc1noc(CN2CCC(c3ccccc3C(=O)O)C2)n1", "stereo": "stereo unspecified", "Percent Effect": -1.042}
{"structure": "CN(C)C(=O)N1CC2(CCNCC2)c2cc(Cl)ccc21.Cl", "Percent Effect": -44.55}
{"structure": "O=c1n(CCNCc2ccc3ccccc3c2)nc2ccccn12", "Percent Effect": -1.229}
{"structure": "Cc1c(NC(=O)NCCO)cccc1OC1CCCC1", "Percent Effect": -0.9182}
{"structure": "Cl.Cl.O=C([C@H]1CCCN1)N1CC2(CCNCC2)c2cc(Cl)ccc21", "Percent Effect": -24.37}
{"structure": "CCc1nc(N2CCCC(O)(CO)CC2)ncc1C", "stereo": "stereo unspecified", "Percent Effect": -32.28}